Test results reported in US20040086504A1, “Cyr61 as a target for treatment and diagnosis of breast cancer” (priority 2003, published 2004).
At least one compound was matched to its structure with a doubt left.

Columns and labels:
Cyr61 = Cyr61 mRNA/protein expression in T47D cells (Northern/Western blot); conditions: co-treatment with R5020
T47D cells = assay: Cell proliferation (Coulter count) of T47D cells; assay type: cell-based, human; conditions: 100 nM RU486 added to R5020 and EGF

Compound: CC#C[C@]1(O)CC[C@H]2[C@@H]3CCC4=CC(=O)CCC4=C3[C@@H](c3ccc(N(C)C)cc3)C[C@@]21C [RU486]
- block of R5020 upregulation of Cyr61 (Cyr61): fully blocked
- synergy between steroid (R5020) and growth factor (EGF) in cell growth (T47D cells): lost
